Data as given in patent publication US7655752B2, “TNF-α converting enzyme inhibitory agents and method of using same” (The United States of America as represented by the …, priority 2003, dated 2010).
Not every detail of the peptide structures is certain; ends, links or a residue may be inferred. Ends that are not written are not given here.

Key:
[1] = system: recombinant human TACE (rhTACE); test: TACE-mediated cleavage of rhTNFR2:Fc model substrate (SDS-PAGE, silver staining, Western blot); type: biochemical; details: 0.5 μM rhTACE, 30 min
Source text: A model assay system was developed to assess the ability of N-TACE to inhibit TACE enzymatic activity. Recombinant human TACE (rhTACE), as well as the recombinant human TNFR1:Fc (rhTNFR1:Fc) and TNFR2:Fc (rhTNFR2:Fc) fusion proteins were purchased from R & D Systems (Minneapolis, Minn.). Both TNFR1:Fc and TNFR2:Fc are recombinant human chimeric proteins that encode the extracellular receptor domains, fused to a carboxy-terminal 6X-histidine-tagged Fc region of human IgG1 via a linker peptide (IEGRMD)(SEQ ID NO:1). Recombinant human TACE corresponds to the mature form following removal of the prodomain and has an apparent molecular weight of 70 kDa. N-TACE(18-54), which lacked the signal peptide, was synthesized by Sigma-Genosys (The Woodlands, Tex.). […]
Chou Fasman analysis was performed using MacVector (Accelrys, Burlington, Mass.). […] Samples were analyzed by SDS-PAGE using 4%-12% Bis-Tris Nupage gels (Invitrogen, Carlsbad, Calif.) and visualized with the SilverQuest Silver Staining Kit (Invitrogen, Carlsbad, Calif.). […] The antibody detected the carboxy-terminus of the recombinant human TNFR2:Fc fusion protein. […]

[2] = system: TNFR2 shedding from U937 cells; test: TNFR2 shedding from U937 cells (sandwich ELISA of soluble TNFR2 in supernatants); type: cell-based; details: 40 μM, 24 hours, compared to cells treated with media alone
Method: The ability of N-TACE to inhibit TNFR2 shedding was tested in a cell-based system. U937 cells were obtained from ATCC (Manassas, Va.) and maintained in RPMI-1640 medium with 10% fetal bovine serum. For experiments, U937 cells were plated into 6 well plates at a density of 2×10^6 cells/ml. PMA was purchased from Sigma (St. Louis, Mo.). Release of TNFR2 into […] cell culture supernatants over a 24-hour period was assayed utilizing a sandwich ELISA with a sensitivity of 7.8 pg/ml (R & D Systems). Cellular apoptosis and necrosis were measured using the TACS Annexin V-FITC Apoptosis Detection Kit (R & D Systems, Minneapolis, Minn.) and a XL-MCL Flow Cytometer (Becman-Coulter, Miami, Fla.). Statistical analysis was performed by a paired Student's t test with a Bonferroni correction for multiple comparisons and by single factor ANOVA. Differences were considered significant at a P value <0.05.
The U937 monocytic cells were treated for 24 hours with either N-TACE(18-54) (0.04 to 40 μM), or a peptide corresponding to N-TACE amino acids 18-29 (40 μM). […] In contrast, N-TACE(18-29) had no effect on TNFR2 shedding as compared to cells treated with media alone (186.5±1.8 vs. 184.6±2.2, n=6, P=NS).

PRPPDDPGFGPHQRLEKLDSLLSDYDILSLSNIQQHS [N-TACE(18-54)]
inhibition of TACE-mediated cleavage of TNFR2:Fc ([1]; 80 μM peptide, 0.95 μM TNFR2:Fc, silver staining): partially inhibited | inhibition of proteolytic cleavage of rhTNFR2:Fc by rhTACE, dose response ([1]; range 20 μM to 160 μM, 0.95 μM rhTNFR2:Fc): significantly inhibited | inhibition of TNFR2 shedding [2]: 42%
